Laboratory results published in PMC4195880.
No constants are given. Whether binding was seen depends on the method and setting. Binding seen in cells or lysates may run through a third protein. Some entries that bind do so weakly or less than the wild type.

Sequences of proteins named here, by UniProt entry; tags and fusion partners are left off.
UniProt P29994: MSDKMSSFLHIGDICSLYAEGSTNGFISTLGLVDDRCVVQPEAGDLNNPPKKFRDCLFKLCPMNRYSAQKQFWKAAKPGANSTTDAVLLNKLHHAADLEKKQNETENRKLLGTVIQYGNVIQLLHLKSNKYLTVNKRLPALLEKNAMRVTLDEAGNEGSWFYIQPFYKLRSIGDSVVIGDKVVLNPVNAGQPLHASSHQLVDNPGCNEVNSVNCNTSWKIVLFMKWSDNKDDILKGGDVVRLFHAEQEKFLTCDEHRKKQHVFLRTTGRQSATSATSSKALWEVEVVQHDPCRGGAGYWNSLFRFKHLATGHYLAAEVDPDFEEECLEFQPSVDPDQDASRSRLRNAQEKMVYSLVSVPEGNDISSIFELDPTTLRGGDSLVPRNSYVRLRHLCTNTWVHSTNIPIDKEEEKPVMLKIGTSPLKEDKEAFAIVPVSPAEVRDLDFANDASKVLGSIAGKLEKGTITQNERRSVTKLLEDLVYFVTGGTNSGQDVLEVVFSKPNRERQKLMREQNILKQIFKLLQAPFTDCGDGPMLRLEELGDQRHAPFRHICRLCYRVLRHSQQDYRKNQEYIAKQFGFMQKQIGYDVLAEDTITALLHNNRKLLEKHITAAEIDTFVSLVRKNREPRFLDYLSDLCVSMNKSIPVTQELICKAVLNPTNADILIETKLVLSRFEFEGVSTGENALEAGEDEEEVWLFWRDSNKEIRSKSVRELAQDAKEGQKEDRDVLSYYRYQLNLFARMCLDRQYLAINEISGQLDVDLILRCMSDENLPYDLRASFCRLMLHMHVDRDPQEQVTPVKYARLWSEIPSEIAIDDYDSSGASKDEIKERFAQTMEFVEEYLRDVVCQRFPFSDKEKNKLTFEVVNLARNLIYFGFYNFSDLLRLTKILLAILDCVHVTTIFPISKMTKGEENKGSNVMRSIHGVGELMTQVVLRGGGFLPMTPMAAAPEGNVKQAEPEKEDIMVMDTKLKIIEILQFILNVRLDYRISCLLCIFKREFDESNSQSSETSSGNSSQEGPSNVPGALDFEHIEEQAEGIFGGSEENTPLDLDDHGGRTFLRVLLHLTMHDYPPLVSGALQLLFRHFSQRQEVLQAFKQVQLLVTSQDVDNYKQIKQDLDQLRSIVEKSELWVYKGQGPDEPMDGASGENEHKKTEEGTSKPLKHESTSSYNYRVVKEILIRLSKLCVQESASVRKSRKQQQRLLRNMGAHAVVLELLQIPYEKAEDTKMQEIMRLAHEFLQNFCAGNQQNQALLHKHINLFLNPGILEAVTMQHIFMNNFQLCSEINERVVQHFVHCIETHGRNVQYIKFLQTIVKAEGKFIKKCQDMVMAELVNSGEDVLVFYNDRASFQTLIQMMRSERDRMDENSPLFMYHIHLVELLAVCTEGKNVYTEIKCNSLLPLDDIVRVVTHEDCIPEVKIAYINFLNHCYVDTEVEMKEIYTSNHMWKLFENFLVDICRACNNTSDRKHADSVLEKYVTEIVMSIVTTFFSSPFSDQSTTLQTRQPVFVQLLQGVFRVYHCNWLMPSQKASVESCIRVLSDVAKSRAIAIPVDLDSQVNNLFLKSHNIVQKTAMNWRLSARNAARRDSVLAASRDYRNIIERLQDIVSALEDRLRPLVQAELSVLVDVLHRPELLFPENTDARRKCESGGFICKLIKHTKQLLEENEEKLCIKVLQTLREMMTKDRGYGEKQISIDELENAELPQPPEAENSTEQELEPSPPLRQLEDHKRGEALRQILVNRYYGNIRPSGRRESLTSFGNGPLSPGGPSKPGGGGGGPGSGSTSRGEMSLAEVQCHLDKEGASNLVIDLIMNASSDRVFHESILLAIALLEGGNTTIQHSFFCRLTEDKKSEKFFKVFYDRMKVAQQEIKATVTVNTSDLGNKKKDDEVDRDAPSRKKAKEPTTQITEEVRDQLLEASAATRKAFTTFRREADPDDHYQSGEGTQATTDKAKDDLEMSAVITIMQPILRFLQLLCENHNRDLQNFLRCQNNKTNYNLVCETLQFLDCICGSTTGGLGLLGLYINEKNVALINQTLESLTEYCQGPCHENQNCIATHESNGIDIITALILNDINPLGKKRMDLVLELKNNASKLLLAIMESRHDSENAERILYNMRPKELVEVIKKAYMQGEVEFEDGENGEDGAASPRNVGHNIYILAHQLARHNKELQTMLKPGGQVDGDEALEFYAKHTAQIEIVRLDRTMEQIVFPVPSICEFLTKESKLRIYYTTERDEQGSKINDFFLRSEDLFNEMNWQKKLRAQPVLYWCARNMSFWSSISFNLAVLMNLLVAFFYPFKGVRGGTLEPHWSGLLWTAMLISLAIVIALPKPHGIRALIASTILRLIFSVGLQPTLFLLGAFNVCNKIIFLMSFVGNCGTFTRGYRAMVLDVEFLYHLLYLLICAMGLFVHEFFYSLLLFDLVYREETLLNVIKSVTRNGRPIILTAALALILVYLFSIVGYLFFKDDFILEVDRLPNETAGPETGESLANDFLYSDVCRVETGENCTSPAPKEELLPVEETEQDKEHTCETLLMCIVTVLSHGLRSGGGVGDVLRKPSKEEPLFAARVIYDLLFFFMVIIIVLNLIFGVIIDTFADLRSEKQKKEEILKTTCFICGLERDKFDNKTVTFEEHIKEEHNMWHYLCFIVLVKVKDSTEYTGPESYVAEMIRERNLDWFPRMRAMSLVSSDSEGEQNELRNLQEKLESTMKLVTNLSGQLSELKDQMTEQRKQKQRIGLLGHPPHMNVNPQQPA
UniProt Q63269: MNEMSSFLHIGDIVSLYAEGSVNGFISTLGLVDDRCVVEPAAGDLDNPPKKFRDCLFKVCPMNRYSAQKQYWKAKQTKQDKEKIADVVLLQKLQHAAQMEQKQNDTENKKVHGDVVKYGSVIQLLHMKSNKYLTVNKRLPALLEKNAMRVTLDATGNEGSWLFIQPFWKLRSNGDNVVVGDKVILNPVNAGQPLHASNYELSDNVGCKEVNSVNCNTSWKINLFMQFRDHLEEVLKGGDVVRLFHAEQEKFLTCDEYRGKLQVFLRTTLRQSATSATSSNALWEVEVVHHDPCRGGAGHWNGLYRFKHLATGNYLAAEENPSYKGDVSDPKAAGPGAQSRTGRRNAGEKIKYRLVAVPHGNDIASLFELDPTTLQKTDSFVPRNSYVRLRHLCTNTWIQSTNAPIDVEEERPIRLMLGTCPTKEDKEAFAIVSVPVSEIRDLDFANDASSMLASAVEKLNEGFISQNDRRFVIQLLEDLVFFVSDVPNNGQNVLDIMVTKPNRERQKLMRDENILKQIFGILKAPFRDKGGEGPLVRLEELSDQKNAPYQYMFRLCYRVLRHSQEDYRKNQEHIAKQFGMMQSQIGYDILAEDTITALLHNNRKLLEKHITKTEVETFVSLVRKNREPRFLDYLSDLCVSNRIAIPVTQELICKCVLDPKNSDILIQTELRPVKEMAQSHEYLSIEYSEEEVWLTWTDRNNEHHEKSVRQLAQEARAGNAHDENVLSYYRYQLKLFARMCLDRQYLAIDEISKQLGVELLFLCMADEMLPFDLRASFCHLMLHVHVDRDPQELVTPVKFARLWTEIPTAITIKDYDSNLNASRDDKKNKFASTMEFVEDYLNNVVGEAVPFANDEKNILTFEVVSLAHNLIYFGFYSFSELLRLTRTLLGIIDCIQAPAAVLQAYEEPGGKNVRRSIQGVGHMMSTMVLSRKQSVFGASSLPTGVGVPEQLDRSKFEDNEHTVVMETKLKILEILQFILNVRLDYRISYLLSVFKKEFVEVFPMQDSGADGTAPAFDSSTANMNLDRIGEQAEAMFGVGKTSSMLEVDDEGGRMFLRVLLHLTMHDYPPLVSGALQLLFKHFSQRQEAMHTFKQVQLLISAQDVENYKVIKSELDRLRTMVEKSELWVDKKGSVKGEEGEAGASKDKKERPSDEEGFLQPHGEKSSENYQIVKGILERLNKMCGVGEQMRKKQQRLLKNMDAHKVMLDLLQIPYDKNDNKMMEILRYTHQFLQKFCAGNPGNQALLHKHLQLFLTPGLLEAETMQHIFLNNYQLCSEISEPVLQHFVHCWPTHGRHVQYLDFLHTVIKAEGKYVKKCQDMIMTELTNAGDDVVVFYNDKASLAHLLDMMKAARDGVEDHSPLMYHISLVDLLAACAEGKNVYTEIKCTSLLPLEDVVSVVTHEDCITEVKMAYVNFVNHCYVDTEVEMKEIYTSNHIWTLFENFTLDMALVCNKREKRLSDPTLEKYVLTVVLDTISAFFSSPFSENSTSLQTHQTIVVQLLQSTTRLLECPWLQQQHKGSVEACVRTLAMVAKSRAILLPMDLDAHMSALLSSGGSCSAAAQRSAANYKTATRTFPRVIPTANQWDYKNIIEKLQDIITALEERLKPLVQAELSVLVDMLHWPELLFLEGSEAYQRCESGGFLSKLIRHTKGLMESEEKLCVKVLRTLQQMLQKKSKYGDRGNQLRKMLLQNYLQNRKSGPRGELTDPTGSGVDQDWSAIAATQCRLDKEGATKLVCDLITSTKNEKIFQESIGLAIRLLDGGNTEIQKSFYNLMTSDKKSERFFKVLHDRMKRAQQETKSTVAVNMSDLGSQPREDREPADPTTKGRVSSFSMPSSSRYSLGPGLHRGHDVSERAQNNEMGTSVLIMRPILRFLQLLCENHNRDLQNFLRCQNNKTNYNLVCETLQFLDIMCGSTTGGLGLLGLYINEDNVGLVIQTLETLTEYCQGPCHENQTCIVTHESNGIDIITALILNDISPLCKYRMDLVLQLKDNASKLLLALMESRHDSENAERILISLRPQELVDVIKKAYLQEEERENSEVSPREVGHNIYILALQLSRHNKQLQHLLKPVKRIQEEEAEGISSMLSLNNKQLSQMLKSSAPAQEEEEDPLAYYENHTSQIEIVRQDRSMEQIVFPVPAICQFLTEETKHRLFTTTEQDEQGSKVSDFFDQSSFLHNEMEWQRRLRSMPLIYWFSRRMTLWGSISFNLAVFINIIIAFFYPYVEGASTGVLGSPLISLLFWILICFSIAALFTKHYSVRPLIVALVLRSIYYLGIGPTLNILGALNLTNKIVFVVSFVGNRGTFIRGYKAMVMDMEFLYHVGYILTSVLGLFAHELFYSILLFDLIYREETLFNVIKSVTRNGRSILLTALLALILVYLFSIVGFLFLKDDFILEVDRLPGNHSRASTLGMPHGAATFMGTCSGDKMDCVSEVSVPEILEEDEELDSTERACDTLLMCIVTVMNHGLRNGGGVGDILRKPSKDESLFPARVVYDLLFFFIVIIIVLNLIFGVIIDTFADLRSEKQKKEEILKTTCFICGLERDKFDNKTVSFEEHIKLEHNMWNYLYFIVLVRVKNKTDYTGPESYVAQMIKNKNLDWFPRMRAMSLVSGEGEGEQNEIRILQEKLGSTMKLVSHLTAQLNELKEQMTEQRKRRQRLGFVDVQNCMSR
UniProt P08050: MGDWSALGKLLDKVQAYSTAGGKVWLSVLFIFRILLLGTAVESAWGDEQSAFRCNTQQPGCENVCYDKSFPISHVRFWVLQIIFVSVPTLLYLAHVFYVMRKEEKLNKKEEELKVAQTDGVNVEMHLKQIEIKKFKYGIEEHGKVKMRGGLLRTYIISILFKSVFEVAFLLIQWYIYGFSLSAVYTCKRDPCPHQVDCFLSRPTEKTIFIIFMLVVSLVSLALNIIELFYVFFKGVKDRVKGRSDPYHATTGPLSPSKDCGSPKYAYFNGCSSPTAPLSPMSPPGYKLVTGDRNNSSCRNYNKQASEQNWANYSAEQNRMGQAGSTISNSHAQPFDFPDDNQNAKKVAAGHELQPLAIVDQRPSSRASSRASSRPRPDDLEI

How the values were obtained:
[1] = target: Inositol 1,4,5-trisphosphate receptor isoform 1 (neonatal rat ventricular myocytes) (rat (endogenous in neonatal rat ventricular myocytes)) (UniProt P29994); test: co-IP; solubilized lysates of homogenized NRVMs; immunoprecipitation with anti-Cx43, anti-pan-IP3R or anti-IP3R isoform antibodies; western blot with anti-Cx43 or anti-pan-IP3R antibody
[2] = target: Inositol 1,4,5-trisphosphate receptor isoform 3 (neonatal rat ventricular myocytes) (rat (endogenous in neonatal rat ventricular myocytes)) (UniProt Q63269); test: as above

Q: What does the source list for “Connexin 43 (neonatal rat ventricular myocytes) (from UniProt P08050 1-382)”?
A: binding [1]: binds; binding [2]: binds
